The test deals with PD-L1 (human (endogenous in A375)) (UniProt Q9NZQ7). Description: affinity purification with mass spectrometry; immunoprecipitates from A375 cells treated with ABZ (1.25 uM) or DMSO, separated by SDS-PAGE, silver stained, bands analysed by LC/MS-MS.

The chains behind the UniProt entries cited, without tags or fusion partners. Residues count along the entry.
UniProt Q9NZQ7, residues 19-290: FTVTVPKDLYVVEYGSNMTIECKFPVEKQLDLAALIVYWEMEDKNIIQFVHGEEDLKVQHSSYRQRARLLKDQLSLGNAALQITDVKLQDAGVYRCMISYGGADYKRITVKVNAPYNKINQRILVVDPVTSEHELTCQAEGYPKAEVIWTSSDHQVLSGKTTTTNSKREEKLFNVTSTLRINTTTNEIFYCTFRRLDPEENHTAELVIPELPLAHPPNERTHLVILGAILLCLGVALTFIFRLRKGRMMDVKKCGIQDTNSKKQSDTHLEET
UniProt Q9NRR5: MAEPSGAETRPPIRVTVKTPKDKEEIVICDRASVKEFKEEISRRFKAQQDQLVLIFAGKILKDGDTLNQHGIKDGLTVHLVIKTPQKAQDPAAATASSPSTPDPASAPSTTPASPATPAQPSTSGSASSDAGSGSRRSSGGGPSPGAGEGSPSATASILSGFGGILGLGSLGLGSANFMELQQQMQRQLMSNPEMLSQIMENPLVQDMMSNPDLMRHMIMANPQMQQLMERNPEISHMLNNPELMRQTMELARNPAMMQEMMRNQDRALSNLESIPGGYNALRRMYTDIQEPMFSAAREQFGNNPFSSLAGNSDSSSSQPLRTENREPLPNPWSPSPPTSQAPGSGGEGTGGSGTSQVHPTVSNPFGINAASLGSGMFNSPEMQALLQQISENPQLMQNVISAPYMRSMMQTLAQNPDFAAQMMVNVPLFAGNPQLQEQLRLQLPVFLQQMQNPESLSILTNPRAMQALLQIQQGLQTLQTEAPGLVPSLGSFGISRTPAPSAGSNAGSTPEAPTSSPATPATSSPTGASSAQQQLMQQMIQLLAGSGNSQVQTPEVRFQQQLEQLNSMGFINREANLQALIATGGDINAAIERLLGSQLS

No constants are given. Whether binding was seen depends on the method and setting. In cells and extracts the contact can be indirect. These calls come from enrichment with a bait or labelling near it, and not all partners need be listed.

For the substance UBQLN4 (from UniProt Q9NRR5 1-601), the binding result is “binds”.
